The values that follow come from publication PMC4851370, “The N-Terminus of the Floral Arabidopsis TGA Transcription Factor PERIANTHIA Mediates Redox-Sensitive DNA-Binding”.

Common to all, as to assay: EMSA
(In general: In EMSA bound probe runs differently from free probe, usually more slowly.)

The target of series [1] is T1, PERIANTHIA (PAN) (Arabidopsis thaliana) (UniProt Q9SX27).
T1 sequence (looked up): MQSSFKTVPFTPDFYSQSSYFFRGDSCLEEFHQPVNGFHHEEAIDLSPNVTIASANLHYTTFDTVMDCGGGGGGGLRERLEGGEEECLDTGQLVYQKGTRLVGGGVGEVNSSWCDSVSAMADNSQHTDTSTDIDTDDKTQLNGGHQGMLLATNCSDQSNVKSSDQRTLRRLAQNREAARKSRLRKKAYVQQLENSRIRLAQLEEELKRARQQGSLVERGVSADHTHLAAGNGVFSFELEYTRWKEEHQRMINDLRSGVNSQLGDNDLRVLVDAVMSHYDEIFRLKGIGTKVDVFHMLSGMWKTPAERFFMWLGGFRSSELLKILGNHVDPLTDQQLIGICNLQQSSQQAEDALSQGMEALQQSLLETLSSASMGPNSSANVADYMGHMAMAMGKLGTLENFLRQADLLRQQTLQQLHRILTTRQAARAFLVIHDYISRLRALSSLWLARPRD
The note with it: 2 mM diamide; with or without 0.9 or 20 mM DTT or 2 mM diamide, 30 min in the dark before probe addition; protein translated in vitro; residues 1-452; label: 5' 32P.

Series [2] concerns the target T2, PANC68S (Arabidopsis thaliana) (UniProt Q9SX27).
T2 sequence (looked up): T1 sequence (looked up) with C68S
The note with it: with or without 0.9 or 20 mM DTT or 2 mM diamide, 30 min in the dark before probe addition, protein translated in vitro, residues 1-452, label: 5' 32P.

For series [3], the target named is T3, PANC27S (Arabidopsis thaliana) (UniProt Q9SX27).
T3 sequence (looked up): T1 sequence (looked up) with C27S
The note with it: with or without 0.9 or 20 mM DTT or 2 mM diamide, 30 min in the dark before probe addition, protein translated in vitro, residues 1-452, label: 5' 32P.

Series [4] has as its target T4, PANC340S (Arabidopsis thaliana) (UniProt Q9SX27).
T4 sequence (looked up): T1 sequence (looked up) with C340S
The note with it: with or without 0.9 or 20 mM DTT or 2 mM diamide, 30 min in the dark before probe addition, protein translated in vitro, residues 1-452, label: 5' 32P.

The target of series [5] is T5, PANC154S (Arabidopsis thaliana) (UniProt Q9SX27).
T5 sequence (looked up): T1 sequence (looked up) with C154S
The note with it: with or without 0.9 or 20 mM DTT or 2 mM diamide, 30 min in the dark before probe addition, protein translated in vitro, residues 1-452, label: 5' 32P.

The target in series [6] is T6, PANC27SC68SC87S (Arabidopsis thaliana) (UniProt Q9SX27).
T6 sequence (looked up): T1 sequence (looked up) with C27S, C68S, C87S
The note with it: with or without 0.9 or 20 mM DTT or 2 mM diamide, 30 min in the dark before probe addition, protein translated in vitro, residues 1-452, label: 5' 32P.

Substitutions are numbered along the chain they refer to. The exact form of at least one protein or probe is not confirmed. A weaker result is weaker than the reference pair of the same experiment. For some assays here: At least one verdict rests on a figure or table, not on a statement of the authors. Tags and fusion partners may be left off the protein sequences shown.

Regarding “AAGAATCTTTGATCACGTCATCACTCAGATATT (double strand)”, the binding result is “binds more weakly” in series [1]; “binds” in series [2] (0.9 mM DTT); “binds more weakly” in series [2] (2 mM diamide); “binds” in series [3] (0.9 mM DTT); “binds more weakly” in series [3] (2 mM diamide); “binds” in series [4] (0.9 mM DTT). For the same sequence, the binding result in series [4] (2 mM diamide) is “binds more weakly”; in series [5] (0.9 mM DTT), “binds”; in series [5] (2 mM diamide), “binds more weakly”; in series [6] (0.9 mM DTT), “binds”; in series [6] (2 mM diamide), “binds more weakly”.
